Test results from article doi:10.1101/2024.03.20.585881.
These are yes or no findings as the source states them, for the method shown. Some results given as binding are weak or reduced against the parent protein; the word gives no strength.

The chains behind the UniProt entries cited, without tags or fusion partners.
UniProt O15169: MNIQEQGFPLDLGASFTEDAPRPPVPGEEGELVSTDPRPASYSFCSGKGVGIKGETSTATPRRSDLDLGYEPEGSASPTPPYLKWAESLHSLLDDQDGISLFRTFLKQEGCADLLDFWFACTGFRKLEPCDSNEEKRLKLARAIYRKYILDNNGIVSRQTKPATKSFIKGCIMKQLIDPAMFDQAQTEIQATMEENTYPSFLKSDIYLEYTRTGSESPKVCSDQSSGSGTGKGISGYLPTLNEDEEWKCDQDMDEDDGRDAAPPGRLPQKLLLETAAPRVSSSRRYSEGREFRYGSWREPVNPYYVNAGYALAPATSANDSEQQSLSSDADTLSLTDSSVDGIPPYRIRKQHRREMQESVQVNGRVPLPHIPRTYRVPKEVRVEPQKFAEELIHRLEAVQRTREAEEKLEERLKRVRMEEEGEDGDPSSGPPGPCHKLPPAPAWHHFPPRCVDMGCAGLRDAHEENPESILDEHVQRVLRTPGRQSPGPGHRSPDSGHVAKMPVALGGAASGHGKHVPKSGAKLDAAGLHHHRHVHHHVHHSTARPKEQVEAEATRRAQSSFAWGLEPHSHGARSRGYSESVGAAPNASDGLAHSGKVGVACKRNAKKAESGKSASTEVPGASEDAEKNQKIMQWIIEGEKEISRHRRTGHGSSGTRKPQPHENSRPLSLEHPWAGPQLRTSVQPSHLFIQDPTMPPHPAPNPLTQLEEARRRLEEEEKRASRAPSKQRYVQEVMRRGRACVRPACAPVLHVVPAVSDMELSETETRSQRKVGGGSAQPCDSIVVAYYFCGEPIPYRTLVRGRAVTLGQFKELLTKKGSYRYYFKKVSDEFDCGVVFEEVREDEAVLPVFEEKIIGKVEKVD
UniProt Q9HCK1: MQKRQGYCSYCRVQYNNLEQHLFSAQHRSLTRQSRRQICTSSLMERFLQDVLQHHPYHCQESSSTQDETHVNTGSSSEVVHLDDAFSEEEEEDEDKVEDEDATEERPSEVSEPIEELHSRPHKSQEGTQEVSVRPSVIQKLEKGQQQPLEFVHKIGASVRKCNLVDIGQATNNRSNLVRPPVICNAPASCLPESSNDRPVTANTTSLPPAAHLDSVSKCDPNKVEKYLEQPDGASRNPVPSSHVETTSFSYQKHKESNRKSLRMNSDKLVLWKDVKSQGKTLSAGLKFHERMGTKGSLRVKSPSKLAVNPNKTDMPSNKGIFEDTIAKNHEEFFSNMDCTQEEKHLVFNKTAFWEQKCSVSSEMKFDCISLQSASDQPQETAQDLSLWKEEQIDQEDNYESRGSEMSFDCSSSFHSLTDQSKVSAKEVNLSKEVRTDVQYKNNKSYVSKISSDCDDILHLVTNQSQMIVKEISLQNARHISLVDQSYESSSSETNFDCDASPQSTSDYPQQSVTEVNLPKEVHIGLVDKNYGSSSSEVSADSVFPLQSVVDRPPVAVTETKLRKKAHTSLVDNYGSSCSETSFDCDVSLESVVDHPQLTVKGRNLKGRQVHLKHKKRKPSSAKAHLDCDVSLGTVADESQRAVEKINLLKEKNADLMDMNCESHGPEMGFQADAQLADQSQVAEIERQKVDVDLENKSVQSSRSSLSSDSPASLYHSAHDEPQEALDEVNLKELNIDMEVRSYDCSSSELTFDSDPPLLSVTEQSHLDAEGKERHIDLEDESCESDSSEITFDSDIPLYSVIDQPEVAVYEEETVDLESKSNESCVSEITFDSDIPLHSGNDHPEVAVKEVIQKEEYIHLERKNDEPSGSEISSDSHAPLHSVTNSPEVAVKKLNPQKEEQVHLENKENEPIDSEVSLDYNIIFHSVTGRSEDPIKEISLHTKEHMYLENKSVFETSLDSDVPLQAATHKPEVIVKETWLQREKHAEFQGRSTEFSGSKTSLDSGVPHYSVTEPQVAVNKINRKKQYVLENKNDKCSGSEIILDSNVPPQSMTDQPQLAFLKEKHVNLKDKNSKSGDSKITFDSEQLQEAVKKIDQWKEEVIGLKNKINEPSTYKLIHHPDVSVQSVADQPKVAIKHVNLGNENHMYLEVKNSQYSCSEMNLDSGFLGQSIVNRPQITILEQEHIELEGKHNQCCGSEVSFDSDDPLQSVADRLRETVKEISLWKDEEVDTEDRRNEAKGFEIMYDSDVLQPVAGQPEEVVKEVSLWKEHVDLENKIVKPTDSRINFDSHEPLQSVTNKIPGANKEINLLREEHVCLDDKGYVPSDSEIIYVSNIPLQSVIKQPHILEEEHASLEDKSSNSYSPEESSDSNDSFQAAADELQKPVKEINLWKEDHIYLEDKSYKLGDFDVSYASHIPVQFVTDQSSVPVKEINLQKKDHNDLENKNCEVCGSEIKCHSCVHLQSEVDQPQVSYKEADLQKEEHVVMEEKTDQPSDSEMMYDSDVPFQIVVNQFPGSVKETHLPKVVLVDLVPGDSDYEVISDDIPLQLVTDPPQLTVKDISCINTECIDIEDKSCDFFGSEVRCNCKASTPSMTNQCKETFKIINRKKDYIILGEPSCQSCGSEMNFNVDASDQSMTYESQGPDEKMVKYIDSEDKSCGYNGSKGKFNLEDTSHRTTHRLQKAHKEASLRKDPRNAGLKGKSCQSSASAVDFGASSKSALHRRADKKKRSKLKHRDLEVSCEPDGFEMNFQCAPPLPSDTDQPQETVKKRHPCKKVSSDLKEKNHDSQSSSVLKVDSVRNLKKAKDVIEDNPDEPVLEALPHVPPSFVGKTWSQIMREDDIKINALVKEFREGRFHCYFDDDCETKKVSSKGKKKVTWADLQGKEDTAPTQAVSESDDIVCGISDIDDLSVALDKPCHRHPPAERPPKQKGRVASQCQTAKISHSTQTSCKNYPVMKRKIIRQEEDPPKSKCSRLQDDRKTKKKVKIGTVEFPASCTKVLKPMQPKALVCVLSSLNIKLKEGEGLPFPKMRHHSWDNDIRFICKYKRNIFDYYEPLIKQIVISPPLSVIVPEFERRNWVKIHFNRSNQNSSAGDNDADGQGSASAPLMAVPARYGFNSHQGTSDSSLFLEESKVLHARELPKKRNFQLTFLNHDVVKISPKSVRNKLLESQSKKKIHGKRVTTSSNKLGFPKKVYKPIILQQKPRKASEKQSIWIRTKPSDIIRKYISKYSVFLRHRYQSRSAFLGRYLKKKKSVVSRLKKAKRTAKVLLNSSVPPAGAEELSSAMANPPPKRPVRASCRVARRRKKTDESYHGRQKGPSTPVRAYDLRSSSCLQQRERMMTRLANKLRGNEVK
UniProt P35222: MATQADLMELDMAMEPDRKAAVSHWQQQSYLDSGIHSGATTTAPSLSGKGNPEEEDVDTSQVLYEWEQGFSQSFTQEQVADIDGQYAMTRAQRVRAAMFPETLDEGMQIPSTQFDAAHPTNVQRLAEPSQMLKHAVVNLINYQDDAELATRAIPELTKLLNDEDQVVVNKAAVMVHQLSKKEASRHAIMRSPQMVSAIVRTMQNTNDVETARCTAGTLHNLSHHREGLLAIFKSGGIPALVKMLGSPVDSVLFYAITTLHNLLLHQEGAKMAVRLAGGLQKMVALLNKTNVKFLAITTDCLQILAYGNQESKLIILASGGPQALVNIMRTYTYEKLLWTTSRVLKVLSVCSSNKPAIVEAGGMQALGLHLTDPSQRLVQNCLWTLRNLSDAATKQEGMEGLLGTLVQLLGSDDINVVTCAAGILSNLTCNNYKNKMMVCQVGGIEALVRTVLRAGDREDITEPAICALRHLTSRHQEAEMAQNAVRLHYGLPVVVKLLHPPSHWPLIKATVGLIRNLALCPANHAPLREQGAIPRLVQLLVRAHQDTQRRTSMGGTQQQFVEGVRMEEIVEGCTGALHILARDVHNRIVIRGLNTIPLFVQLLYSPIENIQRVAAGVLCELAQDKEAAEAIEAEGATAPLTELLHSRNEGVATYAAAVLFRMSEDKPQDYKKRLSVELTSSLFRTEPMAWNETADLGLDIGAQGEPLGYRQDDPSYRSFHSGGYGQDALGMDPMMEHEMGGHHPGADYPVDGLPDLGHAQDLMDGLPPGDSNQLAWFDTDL
UniProt Q5T5U3: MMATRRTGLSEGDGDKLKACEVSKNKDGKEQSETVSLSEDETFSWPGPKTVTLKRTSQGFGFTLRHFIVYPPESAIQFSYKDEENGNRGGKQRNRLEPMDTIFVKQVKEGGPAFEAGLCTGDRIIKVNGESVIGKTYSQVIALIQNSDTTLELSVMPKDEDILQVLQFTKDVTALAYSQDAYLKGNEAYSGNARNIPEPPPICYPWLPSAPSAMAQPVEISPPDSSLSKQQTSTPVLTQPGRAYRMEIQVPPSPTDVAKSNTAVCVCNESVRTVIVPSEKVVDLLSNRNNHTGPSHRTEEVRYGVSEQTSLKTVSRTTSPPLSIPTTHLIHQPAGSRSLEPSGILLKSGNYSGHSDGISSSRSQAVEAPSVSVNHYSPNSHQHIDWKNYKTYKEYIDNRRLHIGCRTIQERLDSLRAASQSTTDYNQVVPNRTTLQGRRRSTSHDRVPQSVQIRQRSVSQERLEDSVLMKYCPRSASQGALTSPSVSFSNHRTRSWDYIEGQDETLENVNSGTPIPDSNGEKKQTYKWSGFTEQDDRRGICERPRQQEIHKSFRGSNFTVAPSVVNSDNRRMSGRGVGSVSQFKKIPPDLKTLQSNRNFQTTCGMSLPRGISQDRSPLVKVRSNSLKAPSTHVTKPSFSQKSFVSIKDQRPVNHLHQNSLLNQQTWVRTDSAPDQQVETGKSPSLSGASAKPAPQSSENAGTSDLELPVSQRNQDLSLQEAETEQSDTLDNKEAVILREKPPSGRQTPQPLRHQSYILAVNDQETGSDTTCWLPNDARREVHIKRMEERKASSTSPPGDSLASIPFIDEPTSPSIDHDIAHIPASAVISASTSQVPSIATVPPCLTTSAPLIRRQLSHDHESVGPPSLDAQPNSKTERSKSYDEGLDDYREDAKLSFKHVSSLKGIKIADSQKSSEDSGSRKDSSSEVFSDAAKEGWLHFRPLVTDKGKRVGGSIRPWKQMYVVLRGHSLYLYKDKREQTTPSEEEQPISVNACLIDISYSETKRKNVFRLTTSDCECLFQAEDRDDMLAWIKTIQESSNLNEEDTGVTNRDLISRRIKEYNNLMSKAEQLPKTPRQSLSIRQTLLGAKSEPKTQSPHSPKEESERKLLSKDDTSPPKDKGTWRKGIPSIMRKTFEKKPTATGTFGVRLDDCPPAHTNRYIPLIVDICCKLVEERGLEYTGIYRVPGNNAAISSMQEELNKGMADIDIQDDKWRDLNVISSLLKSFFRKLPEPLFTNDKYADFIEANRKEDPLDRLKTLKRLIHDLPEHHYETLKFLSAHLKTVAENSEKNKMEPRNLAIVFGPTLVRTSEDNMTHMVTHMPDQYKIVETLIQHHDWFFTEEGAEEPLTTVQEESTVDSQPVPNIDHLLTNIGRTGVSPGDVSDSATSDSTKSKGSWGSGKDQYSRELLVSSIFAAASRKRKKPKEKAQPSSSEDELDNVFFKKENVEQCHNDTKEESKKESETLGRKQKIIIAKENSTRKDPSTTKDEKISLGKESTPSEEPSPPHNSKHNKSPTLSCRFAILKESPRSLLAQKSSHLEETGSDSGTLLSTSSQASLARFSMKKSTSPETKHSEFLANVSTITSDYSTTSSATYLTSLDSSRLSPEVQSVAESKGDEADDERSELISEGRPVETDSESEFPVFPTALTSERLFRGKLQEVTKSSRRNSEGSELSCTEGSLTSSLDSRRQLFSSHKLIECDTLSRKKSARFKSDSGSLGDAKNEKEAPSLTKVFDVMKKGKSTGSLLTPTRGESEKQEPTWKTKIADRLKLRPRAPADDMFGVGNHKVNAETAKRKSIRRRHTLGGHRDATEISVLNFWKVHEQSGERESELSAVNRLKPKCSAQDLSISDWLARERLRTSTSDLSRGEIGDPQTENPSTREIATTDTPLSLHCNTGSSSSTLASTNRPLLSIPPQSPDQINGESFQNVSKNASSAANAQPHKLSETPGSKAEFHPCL

How the values were obtained:
[1] = biological target: 3xFLAG-mScarlet-APC (human (endogenous in HEK293)) (UniProt P25054); test: RNA immunoprecipitation with sequencing
3xFLAG-eGFP-Axin1 = 3xFLAG-eGFP-Axin1 (UniProt O15169); test: RNA immunoprecipitation with sequencing

ZDBF2 (from UniProt Q9HCK1 1-2354)
binding [1]: binds

β-catenin (from UniProt P35222 1-781)
binding (3xFLAG-eGFP-Axin1): binds

ARHGAP21 (from UniProt Q5T5U3 1-1958)
binding (3xFLAG-eGFP-Axin1): binds

Axin1 (endogenous) (from UniProt O15169 1-862)
binding [1]: binds
